# From the supplement of paper PMC10735217
# Where a name gives a salt, the structure may show the parent alone. Some of the results follow. Single values are uncertain here, since repeats match poorly.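 Human kidney-derived cells stably carry a construct in which eight TEAD-binding elements drive luciferase, measured by luminescence in a drug-repurposing library screen. A hit is any compound whose signal exceeds the plate mean by more than five robust Z scores.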
# Tested on: HEK293A TEAD-LUC reporter
# Assay: TEAD-luciferase reporter activity (YAP activation), robust Z score vs plate; higher = stronger YAP/TEAD activation
# Settings: 24 h
SMILES,TEAD-luciferase reporter activity (compound concentration: 200 nM),TEAD-luciferase reporter activity (compound concentration: 2 uM),TEAD-luciferase reporter activity (compound concentration: 10 uM)
CC1NCCC1c1cnc[nH]1 (stereo not given),inactive: -0.0812,inactive: -1.54,inactive: 1.68
CC(C)(C)/[N+]([O-])=C/c1ccc(S(=O)(=O)[O-])cc1S(=O)(=O)[O-] [Disufenton sodium],inactive: -1.33,inactive: -0.597,inactive: 2.58
C[C@@H]1C[C@H]2[C@@H]3CCC4=CC(=O)C=C[C@]4(C)[C@@]3(F)[C@@H](O)C[C@]2(C)[C@@]1(O)C(=O)COP(=O)([O-])[O-] [Dexamethasone sodium phosphate],inactive: 0.71,inactive: 1.27,inactive: 1.32
CC(Cc1c[nH]cn1)/N=C(\c1ccccc1)c1ccccc1O (stereo not given),inactive: -0.974,inactive: -1.4,inactive: -0.657
O=C(O)CN1CCN(C(c2ccccc2)c2cccc(C(F)(F)F)c2)CC1 (stereo not given) [Tilapertin],inactive: -0.611,inactive: 0.639,inactive: 0.999
"CCCCN1CCCCC1C(=O)Nc1c(C)cccc1C (stereo not given) [bupivacaine, Durect-2]",inactive: -0.483,inactive: -1.21,inactive: -0.383
CCOC(=O)[C@H]1CC2(CCN(C(=O)[C@@H](CCCc3ccccc3)NC(=O)C(C)(C)N)CC2)c2ccccc21,inactive: 0.38,inactive: -0.339,inactive: 0.611
O=C1NCCN1CCN1CCN([C@@H]2C[C@@H](c3ccc(F)cc3)c3ccccc32)CC1,inactive: 0.98,inactive: 0.462,inactive: 2.2
CCCCCCC(COC(=O)c1cccnc1)(COC(=O)c1cccnc1)COC(=O)c1cccnc1,inactive: 0.885,inactive: 0.919,inactive: -0.996
COCC(=O)Nc1cc(Sc2ccccc2)ccc1N/C(=N\C(=O)OC)NC(=O)OC [Febantel],inactive: 1.53,inactive: -1.04,inactive: 0.768
CC(C)(C)c1ccc2c(S(=O)(=O)[O-])c(C(C)(C)C)ccc2c1,inactive: -0.25,inactive: 2.1,inactive: -0.845
CC(C)(C)CCCCCC(=O)[O][Pt-2]1([O]C(=O)CCCCCC(C)(C)C)[NH2+][C@H]2CCCC[C@@H]2[NH2+]1 [close analog of NDDP],–,inactive: -0.615,–
CC(C)(C)CCCCCC(=O)[O][Pt-2]1([O]C(=O)CCCCCC(C)(C)C)[NH2+][C@H]2CCCC[C@@H]2[NH2+]1,inactive: -2.92,–,inactive: -1.48
CCCCCCCCCCCCCCC1(C(=O)OC)CO1 (stereo not given),inactive: -1.01,inactive: -0.503,active: 5.66
C[C@@]1(F)[C@H](O)[C@@H](CO)O[C@H]1n1ccc(N)nc1=O,inactive: -1.54,inactive: -0.506,inactive: -0.778
COc1ccc(NC(C)=O)c(NS(=O)(=O)c2ccc(F)c(F)c2F)c1,inactive: -0.176,inactive: -0.671,inactive: -1.61
CC12C=CC(=O)C=C1CCC1C2C(=O)CC2(C)C1CCC2(O)C(=O)CO (stereo not given) [Prednisone],inactive: -0.458,–,inactive: 3.47
CSCC[C@H](NC(=O)[C@H](CC(C)C)NC(=O)CNC(=O)[C@H](Cc1ccccc1)NC(=O)[C@H](Cc1ccccc1)NC(=O)[C@H](CCC(N)=O)NC(=O)[C@H](CCC(N)=O)NC(=O)[C@@H]1CCCN1C(=O)[C@H](CCCCN)NC(=O)[C@@H]1CCCN1C(=O)[C@@H](N)CCCNC(=N)N)C(N)=O [Substance P],inactive: -1.26,inactive: -0.527,inactive: -0.199

SMILES,TEAD-luciferase reporter activity (compound concentration: 200 nM),TEAD-luciferase reporter activity (compound concentration: 2 uM),TEAD-luciferase reporter activity (compound concentration: 10 uM)
CC1(C)CC(C)(C)CC(C)(N)C1 [Neramexane hydrochloride],inactive: -0.358,inactive: -1.41,inactive: -0.656
NS(=O)(=O)c1ccc(S(=O)(=O)Nc2cccc3c(Cl)c[nH]c23)cc1 [indisulam],inactive: 0.162,active: 14.5,active: 11.1
COc1ccc(S(=O)(=O)Nc2nnc(CC(C)C)s2)cc1,inactive: 0.859,inactive: -0.0472,inactive: -1.55
COc1cccc([C@@H](C)NCCCc2ccccc2Cl)c1 [Tecalcet hydrochloride],inactive: -2.21,inactive: -0.96,inactive: 1.36
O=C(c1ccccc1)c1ccc2n1CCC2C(=O)O (stereo not given) [ketorolac],–,inactive: -1.86,–
O=C(c1ccccc1)c1ccc2n1CCC2C(=O)O (stereo not given),inactive: -2.65,–,inactive: -0.998
CC(=O)Nc1ccc(O)cc1OC[C@@](C)(O)CNC1CCN(Cc2ccc(Cl)cc2)CC1,inactive: -1.89,inactive: 0.477,inactive: 1.13
CN(C)c1cccc2c(S(=O)(=O)Nc3ccc(NC(=O)C(C)(C)CO)cc3)cccc12 [Tomeglovir],inactive: -0.957,inactive: 0.914,inactive: 0.404
CCOCCOC(=O)C(=O)Nc1nc(-c2cc(C)no2)cs1,inactive: -1.91,inactive: -0.437,inactive: -0.626
CCOC(=O)CCc1cc(Cl)ccc1C(=O)CCCNC(C)=O,inactive: 0.441,inactive: -0.00298,inactive: -0.524
COc1ccc(CN(CCN(C)C)c2ncccn2)cc1,inactive: -0.969,inactive: 1.23,inactive: 0.029
CNCC(O)c1cccc(NS(C)(=O)=O)c1 (stereo not given),inactive: -0.077,inactive: -1.15,inactive: -0.29
CCc1ccc2c(c1)C=C(C(=O)O)[C@H](C(F)(F)F)O2,inactive: -1.55,inactive: -0.19,inactive: 0.225
CN(C/C=C/c1ccccc1)Cc1cccc2ccccc12 [Naftifine hydrochloride],inactive: -1.14,inactive: 0.577,inactive: -1.43
O=C(c1ccc(F)cc1)N1CCN(C(c2ccccc2)c2ccccc2)CC1,inactive: -0.674,inactive: -1.97,inactive: -1.69
C[C@@H](c1ncncc1F)[C@](O)(Cn1cncn1)c1ccc(F)cc1F [voriconazole],–,inactive: -1.45,–
C[C@@H](c1ncncc1F)[C@](O)(Cn1cncn1)c1ccc(F)cc1F,inactive: -0.547,–,inactive: -0.155

# 2 entries from above, with tabs:
SMILES	TEAD-luciferase reporter activity (compound concentration: 200 nM)	TEAD-luciferase reporter activity (compound concentration: 2 uM)	TEAD-luciferase reporter activity (compound concentration: 10 uM)
CCOC(=O)[C@H]1CC2(CCN(C(=O)[C@@H](CCCc3ccccc3)NC(=O)C(C)(C)N)CC2)c2ccccc21	inactive: 0.38	inactive: -0.339	inactive: 0.611
O=C(c1ccc(F)cc1)N1CCN(C(c2ccccc2)c2ccccc2)CC1	inactive: -0.674	inactive: -1.97	inactive: -1.69
